Test results from patent publication US20200385438A1 (Stanford University, published 2020).
Changes are numbered by the printed parent chain. Results are given in words; binding and its absence hold for the method and conditions named. Some binding calls cover weakened binding; strength is not graded here.

The chains behind the UniProt entries cited, without tags or fusion partners. Where a name states a change or a piece, a line headed by the entry shows the natural chain unless it says otherwise.
UniProt P60568: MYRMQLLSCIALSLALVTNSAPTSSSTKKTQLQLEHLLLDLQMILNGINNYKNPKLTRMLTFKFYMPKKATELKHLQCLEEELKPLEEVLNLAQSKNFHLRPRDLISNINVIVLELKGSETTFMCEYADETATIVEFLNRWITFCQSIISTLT

B1: B5 (receptor)
CD25 (IL-2Rα) chain: ELCDDDPPEIPHATFKAMAYKEGTILVCDCKRGFRRIKSGSAYMLCTGNSSHSSWDNQCQCTSSATRNTTKQVTPQPEEQKERKTTEMQSPMQPVDQASLPGHCREPPPWENEATERRYWFVVGQMVYYQCVQGYRALHRGPAESVCKMTHGQTRWTQPQLICTGEMETSQFPGEEKPQASPEGRPESETSCLVTTTDFQIQTEMAATMETSIFTTE
notes: also called B5 hCD25
B2: E8 (receptor)
CD25 (IL-2Rα) chain: B1 CD25 (IL-2Rα) chain with L2Q, I25V, V27Y, D29E, Q153K
notes: also called E8 hCD25
B3: F5 (receptor)
CD25 (IL-2Rα) chain: B1 CD25 (IL-2Rα) chain with I25L, D29E, R118N, W120M, Q153G
notes: also called F5 hCD25

target: biotinylated recombinant BH3-tagged hIL-2 (human) (UniProt P60568); test: yeast display of hCD25 variants, clone screen with biotinylated hIL-2 monomer read by flow cytometry

Question: Which binding does the source give for B1 here?
Answer: binds

Question: B2 was tested. Which binding did it give?
Answer: binds

Question: How did the binding turn out when B3 was run?
Answer: binds
